Paper doi:10.1101/2022.06.02.494603
No constants are given. Whether binding was seen depends on the method and setting. In cells and extracts the contact can be indirect. Some binding calls cover weakened binding; strength is not graded here.

By UniProt entry, the sequences of proteins in these tests, tags left out. Where a name states a change or a piece, a line headed by the entry shows the natural chain unless it says otherwise.
UniProt Q96CV9: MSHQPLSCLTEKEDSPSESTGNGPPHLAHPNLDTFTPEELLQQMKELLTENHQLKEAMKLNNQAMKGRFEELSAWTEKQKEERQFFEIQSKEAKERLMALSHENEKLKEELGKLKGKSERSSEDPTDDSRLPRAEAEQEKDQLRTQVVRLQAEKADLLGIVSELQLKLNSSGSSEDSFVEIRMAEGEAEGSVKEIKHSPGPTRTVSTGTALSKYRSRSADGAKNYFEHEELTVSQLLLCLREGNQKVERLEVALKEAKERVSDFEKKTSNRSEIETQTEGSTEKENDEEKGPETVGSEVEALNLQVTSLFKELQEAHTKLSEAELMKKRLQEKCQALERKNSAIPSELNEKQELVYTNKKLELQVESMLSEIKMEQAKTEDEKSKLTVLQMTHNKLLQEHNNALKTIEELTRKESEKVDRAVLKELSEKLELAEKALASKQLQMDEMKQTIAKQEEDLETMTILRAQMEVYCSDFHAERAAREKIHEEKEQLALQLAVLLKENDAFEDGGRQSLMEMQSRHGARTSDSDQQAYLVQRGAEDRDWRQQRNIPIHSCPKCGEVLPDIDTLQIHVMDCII
UniProt Q9UHD2: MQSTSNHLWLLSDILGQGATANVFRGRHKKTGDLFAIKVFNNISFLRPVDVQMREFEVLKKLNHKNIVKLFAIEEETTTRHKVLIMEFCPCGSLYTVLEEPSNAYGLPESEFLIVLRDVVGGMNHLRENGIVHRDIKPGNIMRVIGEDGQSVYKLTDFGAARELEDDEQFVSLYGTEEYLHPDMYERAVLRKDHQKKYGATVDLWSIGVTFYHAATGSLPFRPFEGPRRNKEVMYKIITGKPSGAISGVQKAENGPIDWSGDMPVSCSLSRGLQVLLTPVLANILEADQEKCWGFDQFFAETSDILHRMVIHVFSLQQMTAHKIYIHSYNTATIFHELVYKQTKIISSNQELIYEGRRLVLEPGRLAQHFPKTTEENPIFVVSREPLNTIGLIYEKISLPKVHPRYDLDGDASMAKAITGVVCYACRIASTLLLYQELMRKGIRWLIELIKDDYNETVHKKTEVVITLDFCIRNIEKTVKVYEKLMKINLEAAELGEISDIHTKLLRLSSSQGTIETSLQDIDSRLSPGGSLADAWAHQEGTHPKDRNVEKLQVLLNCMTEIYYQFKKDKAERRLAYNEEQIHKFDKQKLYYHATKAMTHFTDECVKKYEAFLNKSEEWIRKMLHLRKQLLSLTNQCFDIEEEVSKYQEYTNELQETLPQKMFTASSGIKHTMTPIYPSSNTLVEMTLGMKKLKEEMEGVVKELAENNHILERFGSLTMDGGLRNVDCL

Target: optineurin, C-terminal myc-FLAG-tagged (UniProt Q96CV9)
Assay: co-IP

Substance	binding
TBK1 del690-729, untagged (from UniProt Q9UHD2 1-689) (domain or fragment)	no binding
TBK1 p.R440X, untagged (from UniProt Q9UHD2 1-439) (domain or fragment)	no binding
TBK1 R308Q, untagged (from UniProt Q9UHD2 1-729)	binds
